Reference: patent publication US20130079370A1, “Method for the Inhibition of Deubiquitinating Activity” (priority 2011, published 2013)
At least one compound was matched to its structure with a doubt left.

Tested on: isogenic clones of HCT116 colon cancer cells
Assay: Apoptosis induction in isogenic clones of HCT116 cells (caspase cleaved CK18 ELISA)
Assay type: cell-based

## C=CC(=O)N1C/C(=C\c2ccc([N+](=O)[O-])cc2)C(=O)/C(=C/c2ccc([N+](=O)[O-])cc2)C1 [b-AP15, (3E,5E)-3,5-bis[(4-nitrophenyl)methylidene]-1-(prop-2-enoyl)piperidin-4-one]
  sensitivity of induced apoptosis to apoptosis regulators: insensitive to over-expression of Bcl-2 and disruption of the apoptotic regulators p52, BAX or PUMA
